No constants are given. Whether binding was seen depends on the method and setting. In cells and extracts the contact can be indirect. Some binding calls cover weakened binding; strength is not graded here. For some assays here: Sequences can lack the tags named with a protein.
How the values were obtained:
[1] = molecular target: HPV 18E7 (endogenous, HeLa) (human papillomavirus type 18 (endogenous in HeLa)) (UniProt P06788); test: co-IP; endogenous proteins of HeLa cells transfected with poly(dA:dT) for the indicated times; immunoprecipitation with IFI16, HPV 18E7, TRIM21 or IgG-conjugated magnetic beads, immunoblot
[2] = molecular target: Flag-HPV 18E7 (human papillomavirus type 18) (UniProt P06788); test: co-IP; 293T cells cotransfected for 36 hr with tagged plasmids; NP-40 lysis buffer; immunoprecipitation with anti-FlagM2 beads, immunoblot
Flag-IFI16 (human) = Flag-IFI16 (human) (UniProt Q16666); test: as above
[3] = molecular target: T1, Flag-HPV 11E7 (human papillomavirus type 11) (UniProt P04020); test: co-IP; HaCaT cells stably expressing Flag-HPV 11E7, transfected with poly(dA:dT) for the indicated times; NP-40 lysis buffer; immunoprecipitation with anti-FlagM2 beads, immunoblot
T1 sequence: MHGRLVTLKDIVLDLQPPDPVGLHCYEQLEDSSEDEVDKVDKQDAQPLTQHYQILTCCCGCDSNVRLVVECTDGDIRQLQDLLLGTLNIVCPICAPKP

Chains of the proteins cited; added tags and fusions are not shown. Lines headed by an entry give the natural chain unless they say otherwise; changes in a name come on top.
UniProt P06788: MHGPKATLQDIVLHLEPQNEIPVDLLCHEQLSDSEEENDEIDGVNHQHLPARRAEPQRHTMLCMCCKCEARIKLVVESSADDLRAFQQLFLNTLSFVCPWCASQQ
UniProt Q16666: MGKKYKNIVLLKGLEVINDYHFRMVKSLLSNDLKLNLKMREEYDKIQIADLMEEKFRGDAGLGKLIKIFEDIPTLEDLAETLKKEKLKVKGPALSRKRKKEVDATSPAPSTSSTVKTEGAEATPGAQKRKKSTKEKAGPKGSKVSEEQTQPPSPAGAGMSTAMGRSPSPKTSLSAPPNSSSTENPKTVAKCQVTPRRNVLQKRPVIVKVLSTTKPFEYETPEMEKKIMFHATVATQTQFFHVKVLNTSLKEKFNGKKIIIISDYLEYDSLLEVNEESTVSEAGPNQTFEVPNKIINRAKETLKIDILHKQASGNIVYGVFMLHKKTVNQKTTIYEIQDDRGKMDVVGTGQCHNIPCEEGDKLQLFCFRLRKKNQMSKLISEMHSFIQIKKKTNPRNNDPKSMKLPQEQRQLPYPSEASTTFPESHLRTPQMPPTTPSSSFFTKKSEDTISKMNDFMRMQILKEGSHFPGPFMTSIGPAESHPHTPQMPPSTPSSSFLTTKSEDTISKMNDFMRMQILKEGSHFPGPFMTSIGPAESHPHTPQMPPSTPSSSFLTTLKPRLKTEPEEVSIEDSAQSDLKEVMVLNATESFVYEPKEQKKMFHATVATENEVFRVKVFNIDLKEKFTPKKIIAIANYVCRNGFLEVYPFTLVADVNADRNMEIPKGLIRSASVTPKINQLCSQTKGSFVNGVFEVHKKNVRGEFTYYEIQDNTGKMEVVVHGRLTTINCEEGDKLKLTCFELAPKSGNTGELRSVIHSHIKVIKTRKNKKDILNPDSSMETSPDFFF

For “IFI16 (endogenous, HeLa) (from UniProt Q16666-1 1-785)”, the binding [1] was “binds”.

In the case of “Myc-TRIM21 (from UniProt P19474-1 1-475)”, the binding [2] is reported as “binds” and the binding (Flag-IFI16 (human)) is reported as “binds”.

For “TRIM21 (endogenous, HeLa) (from UniProt P19474-1 1-475)”, the binding [1] was “binds”.

In the case of “TRIM21 (endogenous, HaCaT) (from UniProt P19474-1 1-475)”, the binding [3] is reported as “binds”.

For “IFI16 (endogenous, HaCaT) (from UniProt Q16666-1 1-785)”, the binding [3] was “binds”.

Myc-IFI16 (from UniProt Q16666-1 1-785) was tested, and the binding [2] was “binds”.

In the case of “GFP-HPV 18E7 (from UniProt P06788 1-105)”, the binding (Flag-IFI16 (human)) is reported as “binds”.
